PubChem BioAssay AID1259425, University of Nebraska Medical Center, 2018

Screen: 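Seek colon cancer weak points whose silencing resembles KSR1 loss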 (primary screen)
Cell system: HCT116 human colon cancer cells
Reagent: siRNA pool against human genes, 50 nM siRNA
Detection: 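After 50 nM siRNA pool, branched-DNA assay measures six marker transcripts per well, minus blank, normalised to the geometric mean of two housekeeping transcripts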
Scale: BNIP3L mRNA: higher = more BNIP3L transcript after knockdown; NDRG1 mRNA: higher = more NDRG1 transcript after knockdown; BNIP3 mRNA: higher = more BNIP3 transcript after knockdown; ALDOC mRNA: higher = more ALDOC transcript after knockdown
The deposit covers about 14,000 reagents; below is a random part of them. Not all columns of the deposit are shown. Not given: the time to read-out.

no.	target	BNIP3L mRNA, set 1	NDRG1 mRNA, set 1	BNIP3 mRNA, set 1	ALDOC mRNA, set 1
1	DGKH (diacylglycerol kinase eta)	0.0582	0.0823	0.212	0.0195
2	IKZF2 (IKAROS family zinc finger 2)	0.107	0.22	0.309	0.00296
3	SCMH1 (Scm polycomb group protein homolog 1)	0.119	0.0461	0.348	0.0269
4	GAPDH (glyceraldehyde-3-phosphate dehydrogenase)	0.0772	0.11	0.226	0.0122
5	ADPRH (ADP-ribosylarginine hydrolase)	0.0924	0.586	0.313	0.0365
6	MAGEB1 (MAGE family member B1)	0.0943	0.101	0.421	0.0166
7	TPMT (thiopurine S-methyltransferase)	0.0786	0.141	0.211	0.0182
8	CHMP3 (charged multivesicular body protein 3)	0.0589	0.2	0.449	0.0374
9	C3orf36 (chromosome 3 putative open reading frame 36)	0.1	0.457	0.425	0.0507
10	NFATC2 (nuclear factor of activated T cells 2)	0.103	0.0533	0.363	0.00869
11	DYNC2H1 (dynein cytoplasmic 2 heavy chain 1)	0.113	0.101	0.377	0.0192
12	CETN1 (centrin 1)	0.141	0.48	0.448	0.00892

Part of the list above, set out differently:
{"target":"DYNC2H1 (dynein cytoplasmic 2 heavy chain 1)","BNIP3L mRNA, set 1":0.113,"NDRG1 mRNA, set 1":0.101,"BNIP3 mRNA, set 1":0.377,"ALDOC mRNA, set 1":0.0192}
{"target":"CETN1 (centrin 1)","BNIP3L mRNA, set 1":0.141,"NDRG1 mRNA, set 1":0.48,"BNIP3 mRNA, set 1":0.448,"ALDOC mRNA, set 1":0.00892}

The listing continues:
no.	target	BNIP3L mRNA, set 1	NDRG1 mRNA, set 1	BNIP3 mRNA, set 1	ALDOC mRNA, set 1
13	DNM2 (dynamin 2)	0.0729	0.518	0.514	0.0575
14	MRPS16 (mitochondrial ribosomal protein S16)	1.9	3.74	3.1	0.665
15	DSCR4 (Down syndrome critical region 4)	0.121	0.237	0.308	0.0178
16	CGREF1 (cell growth regulator with EF-hand domain 1)	0.106	0.147	0.322	0.00662
17	RGS22 (regulator of G protein signaling 22)	0.106	0.256	0.838	0.0928
18	GARS1 (glycyl-tRNA synthetase 1)	0.137	0.171	0.287	0.0226
19	TTC17 (tetratricopeptide repeat domain 17)	0.0585	0.307	0.174	0.0639
20	STXBP5L (syntaxin binding protein 5L)	0.163	0.547	0.467	0.0978
